The test system of this assay is P388 leukemia ip, CD2F1 mice, survival T/C. The assay can be described thus: NCI In Vivo Anticancer Drug Screen. Data for tumor model P388 Leukemia (intraperitoneal) in CD2F1 (CDF1) mice. Conditions: T/C endpoint: median survival time, higher T/C = longer survival.
Setting [1] is: dose: 60.0 mg/kg/injection, schedule: Q01DX005 (ip), vehicle: saline with Tween-80.
[2] abbreviates: dose: 120.0 mg/kg/injection, schedule: Q01DX005 (ip), vehicle: saline with Tween-80.
[3] abbreviates: dose: 240.0 mg/kg/injection, schedule: Q01DX005 (ip), vehicle: saline with Tween-80.
Setting [4] is: dose: 50.0 mg/kg/injection, schedule: Q01DX005 (ip), vehicle: saline with Tween-80.
[5] abbreviates: dose: 100.0 mg/kg/injection, schedule: Q01DX005 (ip), vehicle: saline with Tween-80.
Where [6] appears, read: dose: 200.0 mg/kg/injection, schedule: Q01DX005 (ip), vehicle: saline with Tween-80.
Setting [7] is: dose: 10.0 mg/kg/injection, schedule: Q01DX009 (ip), vehicle: saline with Tween-80.
Where [8] appears, read: dose: 50.0 mg/kg/injection, schedule: Q01DX005 (ip), vehicle: Klucel (hydroxypropylcellulose) (HPC).
[9] abbreviates: dose: 200.0 mg/kg/injection, schedule: Q01DX005 (ip), vehicle: Klucel (hydroxypropylcellulose) (HPC).
Setting [10] is: dose: 100.0 mg/kg/injection, schedule: Q01DX005 (ip), vehicle: saline.
The mark [11] stands for this setting: dose: 200.0 mg/kg/injection, schedule: Q01DX005 (ip), vehicle: saline.
[12] abbreviates: dose: 100.0 mg/kg/injection, schedule: Q01DX005 (ip), vehicle: Klucel (hydroxypropylcellulose) (HPC).
[13] abbreviates: dose: 100.0 mg/kg/injection, schedule: Q01DX009 (ip), vehicle: saline with Tween-80.
[14] abbreviates: dose: 25.0 mg/kg/injection, schedule: Q01DX005 (ip), vehicle: Klucel (hydroxypropylcellulose) (HPC).
Setting [15] is: dose: 400.0 mg/kg/injection, schedule: Q04DX003 (ip), vehicle: saline with Tween-80.

Survivor count and T/C data for 28 compounds are collected here from PubChem BioAssay AID330 (DTP/NCI, 2004).

The list does not hold the whole screen: it is rich in T/C values a quarter to a half above the control, in often repeated tests (any T/C) and in doses without a T/C. Further doses and runs are listed elsewhere. T/C gives the treated animals as a percentage of the vehicle group. Some entries give survivors of the animals treated and no T/C: the source holds a T/C of zero for them, seemingly a mark for toxic or unscored doses. Some doses without a T/C left all or most animals alive at the check, yet need not have been tolerated: the source hardly ever lists a survival T/C far under the control, and the zero likely stands for such cases as well. Survivors were counted at the toxicity check, usually on the fifth day, unless a day is given; later deaths do not show. Schedules are NCI's codes, taken here to give the interval after Q, in days (D) or hours (H), and the number of doses after X. Some entries were tested several times; the results are listed from low to high. Some structures stand for samples that the source files as different forms (salt, stereo form or complex); doses refer to the form tested. Where survival is the endpoint, this PubChem deposit counts one and a half times the control or more as active, and values a quarter to a half above the control carry no call in these data; other NCI protocols may use other cut-offs. Brackets with × say how often a value occurs here. Some T/C values carry the count of animals alive at the toxicity check (mostly the fifth day); where none is given, no animal had died by that day.

In the case of `NS(=O)(=O)c1ccc(Nc2c3ccccc3nc3ncccc23)cc1`, the survivor count (dose: 7.5 mg/kg/injection, schedule: Q01DX005 (ip), vehicle: saline with Tween-80) is reported as 6 of 6; the survivor count (dose: 15.0 mg/kg/injection, schedule: Q01DX005 (ip), vehicle: saline with Tween-80) is on record as 6 of 6; the survivor count (dose: 30.0 mg/kg/injection, schedule: Q01DX005 (ip), vehicle: saline with Tween-80) is 6 of 6; the survivor count under setting [1] was 6 of 6; the survivor count under setting [2] is on record as 5 of 6; the survivor count under setting [3] is reported as 6 of 6.

Consider `CN1C(=O)CC2(C)C1=CCc1scnc12` (stereo unspecified), for which the survivor count is 3 of 6 under setting [1], 1 of 6 under setting [2] and 0 of 6 under setting [3].

With `C/C(=N\NC(=S)N1CCN(c2ccccn2)CC1)c1cccc(C)n1`, the T/C was 132 % of control (dose: 25.0 mg/kg/injection, schedule: Q01DX005 (ip), vehicle: saline with Tween-80) and 136 % of control under setting [4]. Moreover, the survivor count is, setting by setting: under setting [4], 4 of 6; under setting [5], 0 of 6; under setting [6], 0 of 6.

As to `CCCN=Cc1ccccc1O.CCCN=Cc1ccccc1O.[Cu]`, the survivor count runs as follows: (dose: 120.0 mg/kg/injection, schedule: Q01DX005 (ip), vehicle: Klucel (hydroxypropylcellulose) (HPC)) 2 of 6; (dose: 240.0 mg/kg/injection, schedule: Q01DX005 (ip), vehicle: Klucel (hydroxypropylcellulose) (HPC)) 0 of 6.

For the compound `O=[N+]([O-])c1cccc(C(O)(C(F)(F)F)C(F)(F)F)c1`, the survivor count is listed as 4 of 6 (dose: 200.0 mg/kg/injection, schedule: Q04DX002 (ip), vehicle: suspension in saline) and 0 of 6 (dose: 400.0 mg/kg/injection, schedule: Q04DX002 (ip), vehicle: suspension in saline).

Consider `O=C(O)c1c2ccccc2nc2ccccc12`, for which the survivor count by setting is: under setting [5], 0 of 5 and 3 of 5; under setting [6], 0 of 5.

As for `C1=CC2(C=CCC1)OCCO2`, the survivor count runs as follows: under setting [5], 0 of 6; under setting [6], 0 of 5.

With `[Cl][Pt+2][Cl].[NH-]c1ccc([N+](=O)[O-])cc1[NH-]`, where the note is “dose: 25.0 mg/kg/injection, schedule: Q04DX002 (ip), vehicle: saline with Tween-80”, the T/C was 137 % of control.

In the case of `CC(C)(Oc1ccc(Cl)cc1)C(=O)OCCCC(=O)NC1CC(C)(C)N(O)C(C)(C)C1`, the survivor count (dose: 100.0 mg/kg/injection, schedule: Q01DX001 (ip), vehicle: saline) was 6 of 6.

For `CC(C)CC(NC(=O)CF)C(=O)O` (stereo unspecified), the survivor count under setting [7] was 0 of 6.

As for `CC1CC(C)C(C)C(CNCC2CC(C)CC(C)C2C)C1` (stereo unspecified), the survivor count under setting [6] is given as 0 of 5.

As for `COC(=O)c1ccc(N=NN(C)CN=[N+]=[N-])cc1`, under setting [8], the T/C was 130 and 134 % of control. Under setting [9], the survivor count is recorded as 0 of 6.

As to `COc1cc(C)c(C2NC(=O)c3ccccc3N2)cc1C` (stereo unspecified), the T/C reads like this: (dose: 400.0 mg/kg/injection, schedule: Q01DX005 (ip), vehicle: Klucel (hydroxypropylcellulose) (HPC)) 127 and 131 % of control; (dose: 480.0 mg/kg/injection, schedule: Q01DX005 (ip), vehicle: Klucel (hydroxypropylcellulose) (HPC)) 125 % of control; (dose: 800.0 mg/kg/injection, schedule: Q01DX005 (ip), vehicle: Klucel (hydroxypropylcellulose) (HPC)) 142 % of control (2×).

With `O=C[C@@H](CO)O[C@H](C=O)c1c[nH]c(=O)[nH]c1=O`, the T/C reads like this: (dose: 10.0 mg/kg/injection, schedule: Q01DX005 (ip), vehicle: saline, evaluated on day 30) 127 % of control; (dose: 10.0 mg/kg/injection, schedule: Q01DX005 (ip), vehicle: saline, evaluated on day 40) 127 % of control; (dose: 20.0 mg/kg/injection, schedule: Q01DX005 (ip), vehicle: saline, evaluated on day 30) 136 % of control; (dose: 20.0 mg/kg/injection, schedule: Q01DX005 (ip), vehicle: saline, evaluated on day 40) 138 % of control; (dose: 25.0 mg/kg/injection, schedule: Q04DX003 (ip), vehicle: saline) 138 % of control; (dose: 50.0 mg/kg/injection, schedule: Q04DX003 (ip), vehicle: saline) 146 % of control. The survivor count was 5 of 6 and 6 of 6 under setting [10]; 0 of 6 (dose: 160.0 mg/kg/injection, schedule: Q01DX005 (ip), vehicle: saline); 0 of 6 under setting [11]; 3 of 6 (dose: 200.0 mg/kg/injection, schedule: Q04DX003 (ip), vehicle: saline); 0 of 6 (dose: 400.0 mg/kg/injection, schedule: Q01DX005 (ip), vehicle: saline).

Regarding `NC(=O)/C(N=Nc1ccccc1)=N\Nc1ccccc1`, the survivor count runs as follows: under setting [8], 6 of 6; under setting [12], 5 of 6; under setting [9], 6 of 6.

Turning to `O=C(CSc1nnc(CSc2ccc(Cl)cc2)n1-c1ccccc1)NC(=O)Nc1ccccc1`, the survivor count reads like this: under setting [1], 6 of 6; under setting [2], 6 of 6.

For the compound `CCn1c(C)nc([N+](=O)[O-])c1Sc1ncn[nH]1`, the T/C runs as follows: under setting [12], 125 % of control; under setting [9], 131 [4 of 6 alive] and 137 % of control [4 of 6 alive].

As for `O=C1Cc2ccccc2CC1CC1Cc2ccccc2CC1=O` (stereo unspecified), the survivor count (dose: 100.0 mg/kg/injection, schedule: Q01DX009 (ip), vehicle: Klucel (hydroxypropylcellulose) (HPC)) was 6 of 6.

On to `CC(Nc1ccc([N+](=O)[O-])c2nonc12)C(=O)O` (stereo unspecified), for which the survivor count is 6 of 6 (dose: 50.0 mg/kg/injection, schedule: Q01DX009 (ip), vehicle: saline with Tween-80) and 6 of 6 under setting [13].

Consider `CCC[CH2][Sn]1([CH2]CCC)[O]OC2(CCCCC2)[O]1`, for which the T/C (dose: 5.0 mg/kg/injection, schedule: Q01DX009 (ip), vehicle: saline with Tween-80) is 127 % of control. Also, under setting [7], the survivor count was 0 of 6.

Turning to `[Cl][Sn]1([Cl])[CH2]CCCCCCCCCC[CH2][Sn]([Cl])([Cl])[CH2]CCCCCCCCCC[CH2]1`, the survivor count was 6 of 6 under setting [4] and 6 of 6 under setting [6].

For the compound `C=C(Cl)C(=NC(C)(C)C)Nc1ccccc1C`, the T/C is, setting by setting: (dose: 12.5 mg/kg/injection, schedule: Q01DX005 (ip), vehicle: Klucel (hydroxypropylcellulose) (HPC)) 127 % of control; under setting [14], 132 % of control. Moreover, the survivor count is 0 of 6 (dose: 25.0 mg/kg/injection, schedule: Q01DX005 (ip), vehicle: saline); 3 of 6 under setting [8]; 0 of 6 (dose: 50.0 mg/kg/injection, schedule: Q01DX005 (ip), vehicle: saline); 0 of 6 under setting [12]; 0 of 6 under setting [10]; 0 of 6 under setting [9]. Also, the survivor count under setting [11] is recorded as 0 of 6.

In the case of `CCN(CC)c1ccc(NC(C(=O)c2ccccc2)c2ccccc2)cc1` (stereo unspecified), the survivor count runs as follows: under setting [14], 0 of 5; under setting [8], 0 of 5; under setting [12], 0 of 5; under setting [9], 0 of 5.

As for `CN(C)CCC=C1c2ccccc2CCc2ccccc21`, the survivor count by setting is: under setting [10], 0 of 6; under setting [11], 0 of 6.

Consider `CCCOC(=O)/C=C(\I)C(=O)OCCC`, for which the survivor count was 2 of 6 under setting [13] and 0 of 6 (dose: 200.0 mg/kg/injection, schedule: Q01DX009 (ip), vehicle: saline with Tween-80).

Consider `COC(=O)C1Cc2cncn2C(=O)N1` (stereo unspecified), for which, under “dose: 128.0 mg/kg/injection, schedule: Q01DX009 (ip), vehicle: water”, the T/C is 129 % of control.

Take `CC(=O)Nc1ncn[nH]1`: the survivor count under setting [15] is reported as 3 of 6.

On to `CCCCCCCCCCC(O)CCCCCCCCCC`, for which the survivor count under setting [15] was 6 of 6.
